Measured data: PubChem BioAssay AID1259308 (NCATS, 2017)
This is one part, drawn at random, of about 59,000 reagents. About 1,510 of all reagents (2.6%) count as active. 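Calls use total luciferase alone and ignore viability, so some active siRNAs may act by altering cell number.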 Reagents against one gene are numbered here. Further read-outs or replicates are left out here.

- Assay: 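Candidate targets for better recombinant protein yield in mammalian cells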 (primary screen)
- Cell system: human HEK293 embryonic kidney cells stably expressing firefly luciferase (HEK-CMV-Luc2-Hygro)
- Reagents: single siRNA against human genes, 0.8 pmol siRNA per well
- Time to read-out: 72 h
- Measurement: 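Luciferase light (ONE-Glo) measured on one replicate plate set and viability (CellTiter-Glo) on the other, scaled to a negative control siRNA, with robust z-scores and luciferase per cell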
- Scale: total luciferase, z-score: higher = more reporter protein produced
- Active means: 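Active when the median/MAD z-score for overall luciferase is greater than 3; a gene was taken forward for validation with new siRNAs if at least two of its three siRNAs passed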
- Calls: active = raised luciferase; inactive = no rise

The first 2 entries, to show the layout:
{"gene symbol":"RPS14P9 (ribosomal protein S14 pseudogene 9)","reagent":1,"total luciferase, z-score":0.503,"call":"inactive"}
{"gene symbol":"RPS14P9 (ribosomal protein S14 pseudogene 9)","reagent":2,"total luciferase, z-score":-0.995,"call":"inactive"}

The list itself, from the first entry:
{"gene symbol":"RPS14P9 (ribosomal protein S14 pseudogene 9)","reagent":1,"total luciferase, z-score":0.503,"call":"inactive"}
{"gene symbol":"RPS14P9 (ribosomal protein S14 pseudogene 9)","reagent":2,"total luciferase, z-score":-0.995,"call":"inactive"}
{"gene symbol":"RPS14P9 (ribosomal protein S14 pseudogene 9)","reagent":3,"total luciferase, z-score":1.36,"call":"inactive"}
{"gene symbol":"TPM1 (tropomyosin 1)","reagent":1,"total luciferase, z-score":-0.413,"call":"inactive"}
{"gene symbol":"TPM1 (tropomyosin 1)","reagent":2,"total luciferase, z-score":-0.00945,"call":"inactive"}
{"gene symbol":"TPM1 (tropomyosin 1)","reagent":3,"total luciferase, z-score":0.516,"call":"inactive"}
{"gene symbol":"UBE2D3 (ubiquitin conjugating enzyme E2 D3)","reagent":1,"total luciferase, z-score":2.5,"call":"inactive"}
{"gene symbol":"UBE2D3 (ubiquitin conjugating enzyme E2 D3)","reagent":2,"total luciferase, z-score":0.341,"call":"inactive"}
{"gene symbol":"UBE2D3 (ubiquitin conjugating enzyme E2 D3)","reagent":3,"total luciferase, z-score":0.284,"call":"inactive"}
{"gene symbol":"GPR78 (G protein-coupled receptor 78)","reagent":1,"total luciferase, z-score":0.0877,"call":"inactive"}
{"gene symbol":"GPR78 (G protein-coupled receptor 78)","reagent":2,"total luciferase, z-score":-0.645,"call":"inactive"}
{"gene symbol":"GPR78 (G protein-coupled receptor 78)","reagent":3,"total luciferase, z-score":0.208,"call":"inactive"}
{"gene symbol":"NXT2 (nuclear transport factor 2 like export factor 2)","reagent":1,"total luciferase, z-score":0.495,"call":"inactive"}
{"gene symbol":"NXT2 (nuclear transport factor 2 like export factor 2)","reagent":2,"total luciferase, z-score":-1.22,"call":"inactive"}
{"gene symbol":"NXT2 (nuclear transport factor 2 like export factor 2)","reagent":3,"total luciferase, z-score":-0.648,"call":"inactive"}
{"gene symbol":"KCNS1","reagent":1,"total luciferase, z-score":-1.5,"call":"inactive"}
{"gene symbol":"KCNS1","reagent":2,"total luciferase, z-score":2.73,"call":"inactive"}
{"gene symbol":"KCNS1","reagent":3,"total luciferase, z-score":-0.209,"call":"inactive"}
{"gene symbol":"UGT1A6 (UDP glucuronosyltransferase family 1 member A6)","reagent":1,"total luciferase, z-score":-0.724,"call":"inactive"}
{"gene symbol":"UGT1A6 (UDP glucuronosyltransferase family 1 member A6)","reagent":2,"total luciferase, z-score":0.222,"call":"inactive"}
{"gene symbol":"UGT1A6 (UDP glucuronosyltransferase family 1 member A6)","reagent":3,"total luciferase, z-score":2.07,"call":"inactive"}
{"gene symbol":"CCDC14 (coiled-coil domain containing 14)","reagent":1,"total luciferase, z-score":-0.714,"call":"inactive"}
{"gene symbol":"CCDC14 (coiled-coil domain containing 14)","reagent":2,"total luciferase, z-score":1.34,"call":"inactive"}
{"gene symbol":"CCDC14 (coiled-coil domain containing 14)","reagent":3,"total luciferase, z-score":0.157,"call":"inactive"}
{"gene symbol":"RSPO3 (R-spondin 3)","reagent":1,"total luciferase, z-score":0.454,"call":"inactive"}
{"gene symbol":"RSPO3 (R-spondin 3)","reagent":2,"total luciferase, z-score":0.827,"call":"inactive"}
{"gene symbol":"RSPO3 (R-spondin 3)","reagent":3,"total luciferase, z-score":-1.08,"call":"inactive"}
{"gene symbol":"CC2D2A (coiled-coil and C2 domain containing 2A)","reagent":1,"total luciferase, z-score":-0.501,"call":"inactive"}
{"gene symbol":"CC2D2A (coiled-coil and C2 domain containing 2A)","reagent":2,"total luciferase, z-score":0.424,"call":"inactive"}
{"gene symbol":"CC2D2A (coiled-coil and C2 domain containing 2A)","reagent":3,"total luciferase, z-score":-0.926,"call":"inactive"}
{"gene symbol":"DPP4 (dipeptidyl peptidase 4)","reagent":1,"total luciferase, z-score":-0.25,"call":"inactive"}
{"gene symbol":"DPP4 (dipeptidyl peptidase 4)","reagent":2,"total luciferase, z-score":1.14,"call":"inactive"}
{"gene symbol":"DPP4 (dipeptidyl peptidase 4)","reagent":3,"total luciferase, z-score":-1.14,"call":"inactive"}
